# Screening data

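Selective DUX4 reporter inhibition in doxycycline-induced 293T-iDUX4 cells, scored as Gaussia percent activity minus Italica percent activity, after a 24-hour treatment. The test concentration is not given here. Percent difference between the Gaussia and Italica channels; more negative values mean more selective suppression of the DUX4 reporter, and higher values mean less activity.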

Values are in %. The controls that fix the scale are not given here. Common to all entries: measured here: selective DUX4 reporter inhibition. Part of the compounds only, not a random draw; the main read-out is not listed here.

| SMILES | Gaussia minus Italica difference (%) |
|---|---|
| `COc1ccc2c3c([nH]c2c1)[C@H](CO)N(C(=O)Nc1cccc(F)c1)CC31CCN(S(=O)(=O)c2cccc(C)c2)CC1` | 16.55 |
| `CO[C@@H]1CN(C)C(=O)c2cc(NC(=O)Nc3ccc(Cl)c(Cl)c3)ccc2OC[C@H](C)NC[C@H]1C` | 5.987 |
| `C/C=C/c1ccccc1[C@H]1[C@@H](CO)N(C(=O)NC2CCCCC2)[C@H]1C#N` | 1.061 |
| `Cc1ccccc1-c1ccc(C2[C@@H]3CN(S(=O)(=O)Cc4ccccc4)C[C@H]2N3)cc1` (some centres unmarked) | -21.61 |
| `O=C(C[C@H]1C[C@@H]2c3cc(NC(=O)c4ccc5c(c4)OCO5)ccc3O[C@@H]2[C@@H](CO)O1)NCc1ccc(Oc2ccccc2)cc1` | -3.394 |
| `Cc1cccc(-c2ccccc2[C@H]2[C@@H](C#N)N(c3ncc(-c4ccccc4)s3)[C@@H]2CO)c1` | 5.929 |
| `COc1ccc2c3c([nH]c2c1)[C@H](CO)N(CC1CC1)CC31CCN(S(=O)(=O)c2cccc(F)c2)CC1` | -9.583 |
| `COc1ccc2c3c(n(C)c2c1)[C@H](CO)NCC31CCN(S(=O)(=O)c2cccc(C)c2)CC1` | -3.954 |
| `N#Cc1ccc(-c2ccc([C@@H]3[C@H]4CNC[C@@H]3N4Cc3cc(F)ccc3F)cc2)cc1` | 30.32 |
| `COc1ccc(S(=O)(=O)N2CC[C@@H]3[C@H](CO)Nc4ccc(-c5ccc(C#N)cc5)cc4[C@@H]32)cc1` | 4.761 |
| `COc1ccc2c3c([nH]c2c1)[C@H](CO)N(Cc1ccc(Cl)cc1)CC31CN(Cc2nccs2)C1` | -11.4 |
| `Cc1ccc(S(=O)(=O)N2C[C@@H](O)COC[C@@H]3O[C@H](CC(=O)NCc4ccc(Cl)c(Cl)c4)CC[C@H]32)cc1` | 3.017 |
| `COc1ccccc1-c1ccc2c(c1)[C@@H]1[C@@H](CCN1S(=O)(=O)c1ccc(C)cc1)[C@H](CO)N2` | 24.07 |
| `COc1ccc(-c2ccc(C3[C@@H]4CN(C(=O)c5ccc(F)cc5)C[C@H]3N4)cc2)cc1` (some centres unmarked) | -2.497 |
| `COc1ccc2c3c(n(C)c2c1)[C@@H](CO)N(S(=O)(=O)c1ccc(C)cc1)CC31CN(S(=O)(=O)c2ccc(C)cc2)C1` | 5.422 |
| `CN1CCCCN2[C@@H](CO)[C@@H](c3ccc(/C=C/c4ccccc4)cc3)[C@@H]2C1` | -5.03 |
| `Cc1cccc(S(=O)(=O)N2CCCCN3[C@H](CO)[C@H](c4ccc(C#C[C@H](C)O)cc4)[C@@H]3C2)c1` | -7.006 |
| `CCC(=O)N(C)C[C@@H]1Oc2cc(-c3ccccc3C)ccc2S(=O)(=O)N([C@@H](C)CO)C[C@@H]1C` | -0.4183 |
| `O=C(Cc1ccccn1)N1CC2(C1)[C@H](c1ccccc1)[C@H](CO)N2Cc1ccccn1` | 0.5753 |
| `CC(C)CC#Cc1ccc([C@H]2[C@H](CO)N3CCCCN(S(=O)(=O)c4ccc(F)cc4)C[C@@H]23)cc1` | -21.7 |
| `N#C[C@@H]1[C@H](c2ccccc2/C=C/c2ccccc2)[C@H](CO)N1S(=O)(=O)c1cccc(F)c1` | 4.497 |
| `COc1cccc(S(=O)(=O)N2CCCCN3[C@H](C2)[C@H](c2ccc(C4=CCCCC4)cc2)[C@@H]3CO)c1` | 5.267 |
| `COc1ccc(C#Cc2ccc([C@H]3[C@H]4CN(C(=O)Cc5ccccc5)CCCCN4[C@H]3CO)cc2)cc1` | -7.122 |
| `CCCNC(=O)C[C@@H]1CC[C@H]2[C@@H](COC[C@H](O)CN2Cc2ccc(Cl)c(Cl)c2)O1` | -1.916 |
| `COc1ccc2c3c(n(C)c2c1)[C@@H](CO)N(Cc1cc(F)ccc1F)CC31CCN(C(=O)C2CC2)CC1` | -13.81 |
| `C[C@H]1CN([C@@H](C)CO)C(=O)c2c(c3ccccc3n2C)-c2ccccc2CO[C@@H]1CN(C)Cc1cccc(F)c1` | -23.83 |
| `COc1cccc(S(=O)(=O)N(C)C[C@@H]2OCc3ccccc3-c3c(n(C)c4ccccc34)C(=O)N([C@@H](C)CO)C[C@@H]2C)c1` | 9.127 |
| `CCC(=O)N1CC2(C1)CN(Cc1ccccc1Cl)[C@H](CO)c1[nH]c3cc(OC)ccc3c12` | -19.44 |
| `C[C@H](CO)N1C[C@H](C)[C@H](CN(C)Cc2ccc(Cl)c(Cl)c2)OCc2ccccc2-c2ccccc2C1=O` | -8.962 |
| `O=C(C[C@@H]1CC[C@H]2[C@@H](COC[C@@H](O)CN2C(=O)c2ccccc2)O1)NCc1ccc(-c2ccccc2)cc1` | -6.887 |
| `C[C@H](O)C#Cc1ccc([C@@H]2[C@@H](CO)N3CCCCN(S(=O)(=O)c4ccccc4)C[C@@H]23)cc1` | 10.44 |
| `CN(C)CC(=O)Nc1ccc2c(c1)[C@@H]1C[C@H](CC(=O)NCc3ccc(-c4ccccc4)cc3)O[C@@H](CO)[C@@H]1O2` | 1.945 |
| `C[C@H](C(=O)N(C)C[C@@H]1OCc2ccccc2-c2c(n(C)c3ccccc23)C(=O)N([C@@H](C)CO)C[C@@H]1C)c1ccccc1` | 0.1121 |
| `C[C@@H]1CN([C@@H](C)CO)C(=O)c2c(c3ccccc3n2C)-c2ccccc2CO[C@H]1CN(C)S(=O)(=O)c1cccc(C#N)c1` | -18.2 |

Some entries from above, unchanged:

SMILES	Gaussia minus Italica difference (%)
Cc1cccc(S(=O)(=O)N2CCCCN3[C@H](CO)[C@H](c4ccc(C#C[C@H](C)O)cc4)[C@@H]3C2)c1	-7.006
Cc1ccc(S(=O)(=O)N2C[C@@H](O)COC[C@@H]3O[C@H](CC(=O)NCc4ccc(Cl)c(Cl)c4)CC[C@H]32)cc1	3.017
O=C(Cc1ccccn1)N1CC2(C1)[C@H](c1ccccc1)[C@H](CO)N2Cc1ccccn1	0.5753
COc1ccc(S(=O)(=O)N2CC[C@@H]3[C@H](CO)Nc4ccc(-c5ccc(C#N)cc5)cc4[C@@H]32)cc1	4.761

Data taken from PubChem BioAssay AID1224904, deposited by Broad Institute (2016).